Earlier results in patent publication US5177064A, “Targeted drug delivery via phosphonate derivatives” (University of Florida, priority 1990, dated 1993).
At least one structure is not confirmed: it was looked up by name or label, or the drawing left a doubt.

Tested on: AIDS
Details: double blind study, 250 mg/4 hrs, 145 patients; placebo 16 out of 137

Cc1cn([C@H]2C[C@H](N=[N+]=[N-])[C@@H](CO)O2)c(=O)[nH]c1=O [AZT, azidothymidine]
patients who died in the treatment group: one patient out of 145
